From PubChem BioAssay AID1794844 (National Center for Advancing Translational Sciences (NCATS), 2023)
Fewer than 10 of roughly 2,800 compounds were called active. Roughly 7% stayed inconclusive and do not appear here. The call rests on the fitted dose curve; in most records, active means well fitted inhibition curve with a large enough effect; inconclusive means small, poorly fitted or top-dose-only effect; inactive means no such curve, though single readings can be large or run the other way. The list shows a part of the results.

Sequences of proteins named here, by UniProt entry; tags and fusion partners are left off. A change or cut given only in a name is not applied to a line headed by its entry.
UniProt C7C422: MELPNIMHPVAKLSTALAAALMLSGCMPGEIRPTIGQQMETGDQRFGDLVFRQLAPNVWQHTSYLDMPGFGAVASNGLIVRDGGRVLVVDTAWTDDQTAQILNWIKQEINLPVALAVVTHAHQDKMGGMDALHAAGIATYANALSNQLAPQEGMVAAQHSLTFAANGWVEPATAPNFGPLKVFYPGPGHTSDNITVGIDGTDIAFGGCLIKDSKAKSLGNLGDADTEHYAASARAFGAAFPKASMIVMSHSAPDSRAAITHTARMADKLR

molecular target: Metallo-beta-lactamase type 2 (Klebsiella pneumoniae) (UniProt C7C422); test: qHTS to identify inhibitors of the New Delhi Metallo-beta-lactamase (NDM): Nitrocefin screen against the machine-based learning selections.; further: % of control where 0% means no effect; settings: NDM-1 enzyme, nitrocefin hydrolysis, absorbance 485 nm; activity, negative = inhibition: at the top concentration
Summary of the method: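 NDM-1 (2 nM final) in 50 mM HEPES pH 7.0, 1 uM Zn2SO4, 0.01% Tween20 was preincubated with compounds for >30 min. Nitrocefin (16.7 uM final) was read at 485 nm after 15 min, and meropenem (50 uM final) at 300 nm after 30 min.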

activity, negative = inhibition, inactive:
c1ccc(CN2CC(CNc3cccnc3)C3(C2)CN(c2ccccc2)C3)cc1 (stereo unspecified) 4.4% [at 57.5 µM]
CC(C)NC(=O)C[C@@H]1C[C@H]2O[C@H](CNCc3cnccc3Cl)[C@@H](O)[C@H]2O1 -2.18% [at 57.5 µM]
Fc1ccc(-c2cnc([C@@H]3COCCN3C3CCC3)[nH]2)cc1 -4.73% [at 57.5 µM]
O=C(Nc1ccc2c(c1)OCO2)C1CCc2sc(C(=O)N3CCCC3)cc2C1 (stereo unspecified) 1.17%
Cc1cccc(Nc2nc(N)nc(CN3CC[C@@H](N)[C@H](O)C3)n2)c1 -0.926%
CN(C)C(=O)N1CCCn2nc(CNC(=O)c3ccc4[nH]ccc4c3)cc2C1 -5.54%
Cc1ccc(-c2cc(O)c3c(c2)CNCCO3)s1 19.1%
COc1ccc(CNC(=O)[C@@H]2Cc3nc[nH]c3CN2Cc2ccc(Cl)cc2)cc1 -15.5% [at 57.5 µM]
Cc1ccc(-n2nc(C)c([C@@H]3C=C[C@@H](NCc4cccc(C#N)c4)C3)c2C)cc1Cl 2.91% [at 57.5 µM]
O=C(Cc1ccc(OC(F)(F)F)cc1)N1CC2CC(C1)[C@H]1CCCC(=O)N1C2 (stereo partly specified) 2.47%
CCCNC(=O)N[C@@H]1CCC[C@@H](C(=O)NCc2ccc(OC)cc2)CC(=O)N(C)C1 11.5% [at 57.5 µM]
Cc1c(C(=O)NC2CC(c3nnc(CO)n3C3CC3)C2)n(C)c2c(C)cccc12 (stereo unspecified) -1.03%
COc1ccc(C(=O)N2CCC3(CC2)CC(OCC2CC2)CCO3)cn1 (stereo unspecified) 6.06%
NC(=O)Cc1c[nH]c2ncc(-c3ccccc3F)cc12 3.53% [at 76.7 µM]
COCC(=O)N[C@@H]1CN(Cc2ccc(C)cn2)C[C@H]1CO -1.26%
CCNC(=O)N[C@@H]1C=C[C@@H](c2c(C)nn(-c3ccc(OC)cc3)c2C)C1 -0.984% [at 57.5 µM]
COCCc1noc(CN(C)c2cc(C(C)C)nc3ccnn23)n1 -9.25%
CC(C)(C)c1cc(CC2(NCc3ccc(Cl)cc3)COC2)no1 1.47% [at 57.5 µM]
CCOCC(=O)N1CCn2nc(Cc3ccccc3)cc2C1 1.4%
COc1ccc2[nH]c(C[C@@H]3C[C@@H](C(C)C)[C@H](CN(Cc4ccccn4)Cc4ccccn4)C=C3C)nc2n1 29.4%
CC(C)(C)c1ccc2oc(CNC(=O)CN3C(=O)CNC3=O)nc2c1 1.4%
O=C(O)c1cccc([S+](=O)([O-])N2CC(CNC(=O)c3ccccc3)C3(CN(c4ccccc4)C3)C2)c1 (stereo unspecified) -5.82%
CCN1CCN(C2(C(=O)NCCc3ccccc3)Cc3ccccc3C2)CC1 -0.956%
CC1(C(=O)NCc2cccnc2)CCc2cnc(NCc3ccccc3)nc21 (stereo unspecified) -9.35% [at 57.5 µM]
CC(=O)Nc1ccc(CC(=O)N2CCC(C)(c3noc(C)n3)CC2)cc1 -0.638%
CC(C)Nc1ncc(C(=O)NC2CCCN(CCc3ccccc3)C2)cn1 (stereo unspecified) 3.55%
CC[C@@]1(C(=O)O)C[C@H](C(=O)NC(CO)CO)[C@H](c2ccc(F)cc2)N1C -7.83%
CC(C)(C)CC(=O)N[C@H]1C[C@H]2C(=O)Nc3ccc(-c4cccs4)cc3C(=O)N2C1 1.84% [at 57.5 µM]
CS(=O)(=O)N1CCC(C2CCN(C(=O)Cc3cccs3)C2)CC1 (stereo unspecified) -0.833%
O=C(NCCc1ccc(Cl)cc1)c1nc(-c2cc(Cl)cc(Cl)c2)c2ccccn12 -5.46%
CN(C)c1ccc(-c2nnc([C@H]3CCN(CC4CC4)C3)o2)cc1 3.42% [at 57.5 µM]
CC(Cn1cncn1)NC(=O)c1ccc(CCC(C)(C)O)cc1 (stereo unspecified) 1.28%
CCC(C)(C)C(=O)N1CC2CC(C1)[C@H]1CCCC(=O)N1C2 (stereo partly specified) -1.47%
CCC(N)(CC)c1cn(CC2CCCN(S(C)(=O)=O)C2)nn1 (stereo unspecified) -17%
CC(=O)N1CCN(Cc2ccc(F)c(C(F)(F)F)c2)CC(O)C1 (stereo unspecified) -4.75%
CCN1C(=O)C2CC3(CCN(C(=O)CCc4c(C)nn(C)c4C)CC3)CN2C1=O (stereo unspecified) -4.57%
CCNC(=O)O[C@@H]1CO[C@H]2[C@@H]1OC[C@@H]2NC(=O)Nc1ccc(C(C)C)cc1 -8.42% [at 57.5 µM]
O=C(CCc1ccccc1)N1CC[C@H]2COC(=O)N2c2cc(F)ccc2C1 -1.79% [at 57.5 µM]
CC[C@H]1CN(C(=O)Nc2cccc(OC)c2)CC[C@H]1CC(=O)NCc1cccnc1 -4.68% [at 57.5 µM]
COCCOc1ccnc(-c2noc([C@@H]3CCCN3Cc3ccc4c(c3)OCO4)n2)c1 11.4% [at 57.5 µM]
OCc1cccc(-c2ccc3ncc(Nc4ccc(OCCN5CCCC5)cc4)n3n2)c1 4.15% [at 57.5 µM]
Cc1nn(-c2ccc(C(C)(C)C)cc2)c(C)c1[C@@H]1C=C[C@@H](NC(=O)c2ccco2)C1 -6.21% [at 57.5 µM]
CC(C)(C)C(=O)N1CC[C@@H](CC(=O)O)[C@@H](CC2=NCCc3cc(F)ccc32)C1 -17.5% [at 57.5 µM]
Cn1ccc(C(=O)N2CC(CNC(=O)Nc3ccccc3)C3(C2)CN(c2ccccc2)C3)n1 (stereo unspecified) 2%
COCCN1CCC(CN(C)C2CCNCC2)C1 (stereo unspecified) 0.278%
CCc1ccc(NC(=O)C2CCN(C(=O)c3nnn4cc(C)[nH]c(=O)c34)CC2)cc1 -1.83%
Cc1cc(=O)n(CC(=O)Nc2ccc(C)c(Cl)c2)c(N2CCN(c3ccccc3)CC2)n1 -7.15%
COc1ccc(C(=O)Nc2ccc([C@@H](O)[C@H]3COCC(=O)N3Cc3ccc(F)cc3)cc2)cc1OC 3.36%
O=C(c1cc(F)ccc1F)N1CCN(c2cc(-c3ccc(Cl)cc3)[nH]n2)CC1 298%
CCc1nc2c(c(-c3ccc(Cl)cc3)n1)CN(S(=O)(=O)c1ccccc1)CC2 -1.07%
CCCn1ccc2oc(C)c(C(=O)NCc3ccc(CC)cc3)c2c1=O 3.92%
CN1[C@@H](CCC(=O)Nc2ccccc2)CNC(=O)[C@@H]2[C@H]1CCN2Cc1nc2ccccc2n1C -5.21%
CN(Cc1ccccc1)C(=O)C[C@@H]1O[C@H](CNCc2ccc(F)cc2)[C@@H](O)[C@H]1O -1.97% [at 57.5 µM]
O=c1cc(CNCc2nc(-c3ncccn3)no2)[nH]c2ccc(F)cc12 -23.6%
Fc1ccc2c(c1)nc1n2[C@@H](CNC2CCC2)COC1 -8.12% [at 76.7 µM]
COc1ccccc1CN1C(=O)COC[C@@H]1[C@H](O)c1ccc(NC(=O)CCc2ccccc2)cc1 5.98%
OC(c1cccc(C(F)(F)F)c1)c1nc(Nc2ccccc2)n[nH]1 (stereo unspecified) 2.34% [at 57.5 µM]
COCCN1C(=O)[C@@H]2C[C@@H](CN2Cc2ccccc2)Oc2ccccc21 -9.33% [at 57.5 µM]
O=C(NC1CC(c2cc(NCCO)ncn2)C1)c1cc2ccccc2[nH]1 (stereo unspecified) 3.05%
O=C(NCc1ccccc1)N1CCCCC1c1nc(-c2cnccn2)n[nH]1 (stereo unspecified) -16.4%
O=C(NCc1ccc(Cl)cc1)[C@@H]1Cc2nc[nH]c2CN1Cc1ccc(Cl)cc1 -13.9% [at 57.5 µM]

Grouped by structure: the entries above containing a thiophene ring, fused or not (four)
activity, negative = inhibition, inactive:
O=C(Nc1ccc2c(c1)OCO2)C1CCc2sc(C(=O)N3CCCC3)cc2C1 (stereo unspecified) 1.17%
Cc1ccc(-c2cc(O)c3c(c2)CNCCO3)s1 19.1%
CC(C)(C)CC(=O)N[C@H]1C[C@H]2C(=O)Nc3ccc(-c4cccs4)cc3C(=O)N2C1 1.84% [at 57.5 µM]
CS(=O)(=O)N1CCC(C2CCN(C(=O)Cc3cccs3)C2)CC1 (stereo unspecified) -0.833%
